From ChEMBL document CHEMBL3988442, “University of Dundee, Small-Polar-MMV Screening Library” (2021).

The filed quantity is “Percent Effect” (%).
The controls that fix the scale are not given in the record; negative values are as filed.
Compounds were drawn at random from those tested, without regard to their results.

Mtb growth Cornell: 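Whole-cell assay for inhibitors of Mycobacterium tuberculosis growth, labelled Cornell in the record; the read-out is not stated. The concentration is filed as 10 mM, unlikely as a test dose, so the dose is not known. The record gives no direction; compounds strong in two other growth screens of this library score well above the rest, so higher reads as stronger inhibition. About 53,000 compounds were tested under these conditions; 1.7% (about 900) showed 50% or more at least once.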
Mtb heat-shock: 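Assay on Mycobacterium tuberculosis, filed only as a heat shock assay from Cornell; the read-out is not stated. The concentration is filed as 10 mM, unlikely as a test dose, so the dose is not known. Direction is inferred from retests: higher values go with stronger inhibition. About 69,000 compounds were tested under these conditions; 1.4% (about 930) showed 50% or more at least once.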

{"structure": "Cc1cnn(CCC(=O)N2CCCC(c3nc(C)c(C)s3)C2)c1", "stereo": "configuration not stated", "Mtb heat-shock": 7.568}
{"structure": "[H][C@@]12COC[C@]1([H])[C@@H](OCC1CC1)CN2C(=O)c1ccnnc1", "Mtb growth Cornell": 6.802, "Mtb heat-shock": -14.74}
{"structure": "O=C(C1CCC1)N1CCCC1c1nnc2n1CCCCC2", "stereo": "configuration not stated", "Mtb growth Cornell": -4.785, "Mtb heat-shock": -16.75}
{"structure": "COCCn1c2c(ccc1=O)CCN(C(=O)C1CC=CC1)CC2", "Mtb growth Cornell": 18.02, "Mtb heat-shock": 12.19}
{"structure": "CCN(CC)CCNC(=O)CCc1c(C)nn(-c2ccccc2Cl)c1C", "Mtb growth Cornell": -32.59, "Mtb heat-shock": -5.446}
{"structure": "COCCN1CCC2(CC1)CC(N1CCOCC1)c1cc(C)ccc12.O=C(O)C(F)(F)F.O=C(O)C(F)(F)F", "stereo": "configuration not stated", "Mtb growth Cornell": -16.95, "Mtb heat-shock": 6.155}
{"structure": "CCSc1ccccc1C(=O)N1CC2(COC(C)(C)OC2)C1", "Mtb growth Cornell": -6.04, "Mtb heat-shock": 3.374}
{"structure": "O=C(O)C(F)(F)F.[H][C@@]12CN(C3CCOCC3)C[C@]1([H])OCCN2Cc1c(C)noc1C", "Mtb heat-shock": -31.36}
{"structure": "CC(NC(=O)N1CCN(c2ccccc2)CC1)c1nncn1C", "stereo": "configuration not stated", "Mtb heat-shock": -2.98}
{"structure": "CC(C)N(Cc1ccc(Cl)c(Cl)c1)C(=O)CCn1cncn1", "Mtb growth Cornell": 29.65, "Mtb heat-shock": 2.895}
{"structure": "CC(C)Nc1ncnc2c1CCN(C(=O)N1CCOCC1)CC2", "Mtb growth Cornell": -67.33, "Mtb heat-shock": -25.6}
{"structure": "COCC1c2nnn(CC3CC3)c2CCN1C(=O)c1sccc1C", "stereo": "configuration not stated", "Mtb growth Cornell": 1.228, "Mtb heat-shock": 7.308}
{"structure": "Cc1cc(C(=O)N(C)Cc2ccccc2OCC(C)C)cc(=O)[nH]1", "Mtb growth Cornell": -10.31, "Mtb heat-shock": -8.821}
{"structure": "Cc1noc(C)c1C(=O)N(C)C(C)c1ccc(S(C)(=O)=O)cc1", "stereo": "configuration not stated", "Mtb growth Cornell": 17.45, "Mtb heat-shock": -14.76}
{"structure": "CCc1n[nH]c(C(=O)NCCn2ccnc2C)c1C", "Mtb heat-shock": -101}
{"structure": "CC1CN(C)c2ccccc2CN1C(=O)c1ccoc1", "stereo": "configuration not stated", "Mtb growth Cornell": 13.52, "Mtb heat-shock": -22.11}
{"structure": "Cc1noc(C)c1CC(=O)N1CCCC(Cc2ccccn2)C1", "stereo": "configuration not stated", "Mtb growth Cornell": -7.683, "Mtb heat-shock": -0.6413}
{"structure": "CCOc1ccc(NC(=O)NC2CCc3[nH]ncc3C2)cn1", "stereo": "configuration not stated", "Mtb growth Cornell": -0.3931, "Mtb heat-shock": -10.36}
{"structure": "CS(=O)(=O)NCC1CCCN(C(=O)COCC(F)(F)F)C1", "stereo": "configuration not stated", "Mtb growth Cornell": -43.88, "Mtb heat-shock": 31.35}
{"structure": "Cn1cnnc1C1CCCN(C(=O)NCc2cc[nH]n2)C1", "stereo": "configuration not stated", "Mtb growth Cornell": -5.924, "Mtb heat-shock": -19.24}
{"structure": "CC(C)(O)CN1CCN(C(=O)COCC2CC2)CC1", "Mtb growth Cornell": 14.58, "Mtb heat-shock": -2.777}
{"structure": "NC(=O)N1CC[C@H](O)[C@@H]1Cc1ccccc1", "Mtb growth Cornell": 24.09, "Mtb heat-shock": 10.25}
{"structure": "Cc1noc(C)c1CN1CCn2cc(CN3CCOCC3)nc2C1", "Mtb growth Cornell": -7.837, "Mtb heat-shock": 37.16}
{"structure": "Cc1cc(C(=O)N2C[C@H](C(C)C)[C@@H](N(C)C)C2)cs1", "Mtb growth Cornell": -6.255, "Mtb heat-shock": 4.01}
{"structure": "CCOc1nnc(CN2CCN(CCOC)C(CC)C2)s1", "stereo": "configuration not stated", "Mtb growth Cornell": -34.46, "Mtb heat-shock": -21.76}
{"structure": "CN(C)c1ncc(-c2cccc(F)c2)c(C2CNCCO2)n1.Cl", "stereo": "configuration not stated", "Mtb growth Cornell": 7.636, "Mtb heat-shock": 5.089}
{"structure": "CCNc1ncc(CN2C[C@@H](CN3CCC(CO)CC3)[C@@H](CO)C2)cn1", "Mtb heat-shock": -40.77}
{"structure": "COCCNCc1cc2c(C)cc(C)cc2n2c(=O)n(C)nc12", "Mtb growth Cornell": 20.63, "Mtb heat-shock": -2.371}
{"structure": "CNC(=O)CCc1cc(C2CCN(c3cnccn3)CC2)nc(C)n1", "Mtb growth Cornell": 10.67, "Mtb heat-shock": -7.199}
{"structure": "COc1ccc(C2CCCN2c2nnc(C)s2)c(OC)c1", "stereo": "configuration not stated", "Mtb growth Cornell": -11.46, "Mtb heat-shock": 8.138}
{"structure": "c1ccc(-c2noc(CN3CCC(c4ccn[nH]4)CC3)n2)cc1", "Mtb heat-shock": 12.87}
{"structure": "COC(=O)Cn1c(=O)nc2n1C(=O)N(c1ccccc1)C2", "Mtb growth Cornell": 37.01, "Mtb heat-shock": 16.66}
{"structure": "Cc1ccc(CN2Cc3c(C(=O)N4CCOCC4)nn(C)c3C2)s1.O=C(O)C(F)(F)F", "Mtb growth Cornell": 15.84, "Mtb heat-shock": -27.3}

2 of the entries, repeated:

{"structure": "CCN(CC)CCNC(=O)CCc1c(C)nn(-c2ccccc2Cl)c1C", "Mtb growth Cornell": -32.59, "Mtb heat-shock": -5.446}
{"structure": "O=C(O)C(F)(F)F.[H][C@@]12CN(C3CCOCC3)C[C@]1([H])OCCN2Cc1c(C)noc1C", "Mtb heat-shock": -31.36}